{"source": "patent US11331295B2", "about": "“High-dose statins for age-related macular degeneration” (MASSACHUSETTS EYE AND EAR INFIRMARY, priority 2015, dated 2022)", "test_system": "patients with AMD with many large, soft drusen/drusenoid PEDs", "conditions": "23 patients, ~30 person-years of follow-up; 14% expected by risk calculator", "description": "A case report and pilot multi-center prospective interventional study were conducted with IRB approval. Inclusion criteria were patients over the age of 50 with diagnosis of AMD and the presence of many large, soft drusen/drusenoid PEDs in both eyes. […] Pseudophakia was not a reason for exclusion, unless accompanied by significant posterior capsular opacity.", "data": [{"smiles": "CC(C)c1c(C(=O)Nc2ccccc2)c(-c2ccccc2)c(-c2ccc(F)cc2)n1CC[C@@H](O)C[C@@H](O)CC(=O)O", "note": "[atorvastatin]", "values": [{"measurement": "patients converted/progressed to neovascular (wet) AMD", "value": "None and none"}]}]}
